The campaign covered roughly 360,000 compounds. About 7,500 (2.1%) were called active. Inconclusive means that the source gave no clear call. Such entries were picked first, then a sample of the others. The call rests on the fitted dose curve; in most records, active means well fitted inhibition curve with a large enough effect; inconclusive means small, poorly fitted or top-dose-only effect, or effect the other way; inactive means flat fitted curve, though single readings scatter. Potencies of inconclusive entries are doubtful fits and often do not repeat.
experiment: Nrf2 qHTS screen for inhibitors; conditions: A549 ARE-Fluc reporter, luciferase luminescence, 18-24 h; activity change, negative = inhibition: at 46 µM (top of the series); further: nearly all actives have a fitted effect of over 60% in size
In short: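 Nrf2 function is reported as luminescence of an ARE-controlled luciferase in A549 cells. Compounds were tested at several concentrations, and a CellTiter-Fluor read on the same wells flagged cytotoxicity.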
On the % scale 0 is the no-effect control and ±100 the full control effect; potency means the concentration at half of the fitted maximal effect.

SMILES | Potency | activity change, negative = inhibition
OCCN(Cc1ccccc1)c1ncnc2sccc12 | inconclusive: 18.4 µM [falling, single point] | –
Cc1ccc2oc(C(=O)NC3CCS(=O)(=O)C3)cc(=O)c2c1 (stereo unspecified) | inconclusive: 5.8 µM [falling, partial curve, poor fit] | –
O=C(Nc1ccc2c(c1)OCO2)N1CCN(Cc2ccco2)CC1 | active: 16.4 µM | –
Cc1cccc(-c2nnc(SCc3ccccc3)o2)c1 | inconclusive: 7.31 µM [activator, partial curve, poor fit] | –
CSc1cccc(NS(=O)(=O)c2ccc(F)cc2)c1 | inconclusive: 29.1 µM [falling, single point] | –
Cc1nn(CC(=O)NC2CCS(=O)(=O)C2)c(C)c1[N+](=O)[O-] (stereo unspecified) | inconclusive: 20.6 µM [activator, partial curve, poor fit] | –
Cc1ccc(/C=N/Nc2ccnc3cc(Cl)ccc23)c(C)c1 | inconclusive: 18.4 µM [falling, single point] | –
Cc1cccc(C(=O)N(Cc2ccccc2F)C2CCS(=O)(=O)C2)c1 (stereo unspecified) | – | inactive: 6.39%
CCN(CC)C(=O)[C@H]1C[C@H](CC(=O)NC/C=C(\C)CCC=C(C)C)C(=O)N2CCc3c([nH]c4cc(-c5ccco5)ccc34)[C@]12C | inconclusive: 32.6 µM [falling, single point] | –
Nc1ccc(Oc2ccc3c(c2)OCO3)cc1 | inconclusive: 29.1 µM [falling, single point] | –
COC(=O)c1c(NC(=O)COc2cccc(C(F)(F)F)c2)sc2c1CCCC2 | – | inactive: 0.387%
CCOC(=O)Nc1nc2ccccc2s1 | inconclusive: 2.06 µM [activator, full curve] | –
NC(=O)c1nsc(C(=O)N(c2ccc3c(c2)OCO3)C(C(=O)NCC2CCCO2)c2ccc(F)cc2)c1N (stereo unspecified) | inconclusive: 1.3 µM [activator, full curve, poor fit] | –
COc1ccc(-c2cc(C(=O)N3CCCC3)no2)cc1OC | inconclusive: 11.6 µM [activator, partial curve] | –
COc1ccc(OCCNS(=O)(=O)c2ccc3oc4ccccc4c3c2)cc1 | inconclusive: 32.6 µM [falling, single point] | –
CCn1cc(-c2cc(C(=O)O)c3ccccc3n2)c(C)n1 | inconclusive: 1.46 µM [falling, full curve] | –
O=C(NCCC1=CCCCC1)c1ccc2c(c1)N(Cc1ccccc1)C(=O)c1ccccc1S2=O (stereo unspecified) | inconclusive: 8.2 µM [falling, partial curve] | –
COc1ccc(C2(c3ccc(OC)cc3)NC(=O)N(CC(=O)Nc3ccc(C(=O)N(C)C)cc3)C2=O)cc1 | inconclusive: 18.4 µM [falling, single point] | –
O=[N+]([O-])CC(=Nc1ccc(Cl)cc1)N/N=C\c1oc(O)c2ccccc12 | inconclusive: 0.92 µM [activator, full curve, poor fit] | –
O=C(COn1nnc2ccccc21)NCC1CCCCC1 | inconclusive: 23.1 µM [activator, single point] | –
O=C(COC(=O)c1n[nH]c2ccccc12)c1cc(F)ccc1F | inconclusive: 20.6 µM [activator, partial curve, poor fit] | –
COc1ccc2c(Cl)c(-c3nnc(SCC(N)=O)n3C)sc2c1 | inconclusive: 32.6 µM [falling, partial curve, poor fit] | –

SMILES | Potency | activity change, negative = inhibition
COc1cccc(C2=NOC(C(=O)N3CCN(Cc4ccccc4)CC3)C2)c1OC (stereo unspecified) | inconclusive: 18.4 µM [falling, partial curve, poor fit] | –
O=C(Nc1cccc(C(F)(F)F)c1)Nc1ccc2snnc2c1 | active: 20.6 µM | –
Oc1ccc(CNc2ccc(F)cc2F)c2cccnc12 | active: 10.3 µM | –
Cc1ccc(/C=N/NC(=O)c2cc(-c3ccncc3)nc3ccccc23)o1 | inconclusive: 7.31 µM [activator, partial curve] | –
CCc1ccc(NC(=O)Cn2cnc3sc(C)c(S(=O)(=O)N4CCOCC4)c3c2=O)cc1 | – | inactive: 3.9%
Cc1cc(S(=O)(=O)Nc2ccc(O)c(Sc3nc4ccccc4s3)c2)ccc1Cl | – | inactive: 2.38%
COc1ccc(-c2ccc(-c3cc(=O)oc4cc(OC)c(OC)c(OC)c34)cc2)cc1OC | inconclusive: 25.9 µM [falling, partial curve, poor fit] | –
Brc1ccc(-c2nc(-c3ccncc3)no2)o1 | inconclusive: 14.6 µM [activator, partial curve, poor fit] | –
C=CCN(c1nc(C)cc(OC)n1)S(=O)(=O)c1ccc(C)cc1 | inconclusive: 16.4 µM [falling, partial curve, poor fit] | –
COc1ccc(-c2csc(N=C(N)N)n2)cc1 | inconclusive: 18.4 µM [activator, partial curve] | –
CCc1ccc(CN(Cc2cn[nH]c2-c2ccc(OC)cc2)C(=O)Nc2ccc(Br)cc2)cc1 | – | inactive: 0.417%
O=S(=O)(Cc1cc(Cl)nc(-c2ccccc2)n1)c1ccccc1 | inconclusive: 36.6 µM [falling, partial curve, poor fit] | –
Oc1ccccc1C1CC(c2cccs2)=NC(c2cccc(Br)c2)N1 (stereo unspecified) | – | inactive: 1.23%
O=C(Cc1n[nH]c(=O)c2ccccc12)NCc1ccccn1 | – | inactive: -12%
COc1ccc(OC)c(NC(=O)Cc2c(C(=O)O)n(C)c3ccccc23)c1 | inconclusive: 6.51 µM [activator, single point] | –
CC[C@]12C(=O)N(C)C[C@H]([C@@H]3C(=O)N(Cc4ccccc4)C(=O)[C@@H]31)N2C(=O)c1ccc(C(C)(C)C)cc1 | inconclusive: 14.6 µM [falling, partial curve, poor fit] | –
Cc1cc(C)c(N2C(=NC(=O)CCCC(=O)O)SC3CS(=O)(=O)CC32)c(C)c1 (stereo unspecified) | inconclusive: 6.51 µM [activator, partial curve, poor fit] | –
CCN(CC)C(=O)CSc1nc2cc3c(cc2c(=O)n1CCCC(=O)NCc1ccc(OC)cc1)OCO3 | inconclusive: 10.3 µM [falling, partial curve, poor fit] | –
O=C(NC1CCCCC1)N1CCC(c2nc(-c3ccc(S(=O)(=O)N4CCCC4)cc3)no2)CC1 | inconclusive: 23.1 µM [falling, partial curve, poor fit] | –
CCc1ccc(C(=O)N/N=C/c2cccc3ccccc23)nc1 | inconclusive: 16.4 µM [activator, partial curve, poor fit] | –
COc1ccc(Br)cc1CN(C)C(=O)c1cc(Cl)c2c(c1)OCCO2 | inconclusive: 11.6 µM [falling, single point] | –
COc1ccccc1-c1noc(CCCC(=O)N2CCOCC2)n1 | – | inactive: 2.2%

SMILES | Potency | activity change, negative = inhibition
O=C(CSc1cn[nH]n1)Nc1nc2ccccc2s1 | inconclusive: 1.16 µM [activator, full curve] | –
CCOC(=O)C1CCN(C(=S)Nc2cccc(C)c2)CC1 | – | inactive: 9.38%
CCC(=O)Nc1nonc1-c1nc2ccccc2n1CCC(C)C | inconclusive: 7.31 µM [falling, partial curve, poor fit] | –
Cc1nn(-c2cc(C(F)(F)F)ccn2)c(=O)o1 | inconclusive: 0.0046 µM [falling, full curve, poor fit] | –
CC1CCN(S(=O)(=O)c2ccc(C(=O)N3CCCC(C(F)(F)F)C3)cc2)CC1 (stereo unspecified) | active: 20.6 µM | –
COC(=O)C1=C(Nc2ccc(C)cc2)C=C(C)C(C(=O)OC)C1c1cccc(OC)c1 (stereo unspecified) | inconclusive: 16.4 µM [falling, single point] | –
Cc1ccc(-c2csc(C(C#N)=C3CCCC3)n2)cc1 | inconclusive: 2.06 µM [activator, full curve] | –
CC(=O)c1cccc(Nc2nc(-c3ccccc3)nc3ccccc23)c1 | inconclusive: 29.1 µM [falling, single point] | –
O=C(O)c1ccc2c3c(ncnc13)-c1ccccc1C2=O | active: 2.59 µM | –
C=CCn1cnc2sc(C(=O)Nc3ccccc3OC)c(C)c2c1=O | inconclusive: 6.51 µM [falling, single point] | –
COc1cc2c(cc1OC)CN(c1nc(CN3CCOCC3)nc3sc4c(c13)CCCC4)CC2 | – | inactive: -16%
Cc1cccc(NC(=O)Cn2c(=O)c3cccn3c3ccccc32)c1C | active: 23.1 µM | –
N#Cc1cccc(NCC(=O)Nc2ccc3c(c2)OCCO3)c1 | inconclusive: 3.26 µM [activator, full curve, poor fit] | –
Cc1ccsc1CNc1ncnc2ccc(-c3ccc4c(c3)OCO4)cc12 | inconclusive: 32.6 µM [falling, single point] | –
NNC(=O)COc1ccccc1[N+](=O)[O-] | – | inactive: 11.9%
Cc1cc(NC(=O)CCC(=O)N(Cc2ccco2)C2(C(=O)NC3CCCCC3)CCCC(C)C2)no1 (stereo unspecified) | inconclusive: 16.4 µM [falling, partial curve, poor fit] | –
CC(Cc1cccs1)NC(=O)CCCn1nnnc1CN1CCOCC1 (stereo unspecified) | – | inactive: 6.46%
OCCN1CCN(c2nc(-c3ccccc3)c3cc(Br)ccc3n2)CC1 | – | inactive: 2.92%
C/C(=N\NC(=O)c1ccc(NS(=O)(=O)c2cccs2)cc1)c1ccccn1 | inconclusive: 18.4 µM [falling, single point] | –
COc1ccc2nc(SCC(=O)c3ccco3)[nH]c2c1 | inconclusive: 6.51 µM [activator, partial curve, poor fit] | –
COC(=O)c1ccc(NC(=O)CCCCCn2nnc3ccccc3c2=O)cc1 | inconclusive: 0.92 µM [falling, full curve, poor fit] | –
CC(C)OCCCNC(=O)CN1CCN(Cc2ccccc2Cl)C1=O | inconclusive: 32.6 µM [activator, single point] | –

Pulled by structure from above (4):
SMILES | Potency | activity change, negative = inhibition
COc1cc2c(cc1OC)CN(c1nc(CN3CCOCC3)nc3sc4c(c13)CCCC4)CC2 | – | inactive: -16%
CC(C)OCCCNC(=O)CN1CCN(Cc2ccccc2Cl)C1=O | inconclusive: 32.6 µM [activator, single point] | –
Cc1cc(NC(=O)CCC(=O)N(Cc2ccco2)C2(C(=O)NC3CCCCC3)CCCC(C)C2)no1 (stereo unspecified) | inconclusive: 16.4 µM [falling, partial curve, poor fit] | –
NNC(=O)COc1ccccc1[N+](=O)[O-] | – | inactive: 11.9%

— PubChem BioAssay AID504444 (National Center for Advancing Translational Sciences (NCATS), 2011)
